Data published in patent US20250049680A1, “COMPOSITIONS AND METHODS FOR TREATING DENTIN CARIES” (Rutgers, The State University of New Jersey, priority 2023, published 2025).
Some results were stated once for a whole list of compounds, not compound by compound. For at least one compound, name, drawing or mass did not settle the structure. Some compounds share one range, which may span the group rather than tell each member.

assay: Solubility evaluation: weight loss of fortified dentin in butyric acid; parameters: species or system human; details: butyric acid solubility test, relative to saline
Procedure: The column was further developed with 150 mL of one of five metal chloride solutions (0.1 mol/L AA2P salts of Mg, Zn, Mn, Sr, and Ba) to obtain a fraction containing new cationic L-ascorbic acid 2 phosphates with Mg, Zn, Mn, Sr, or Ba (FIG. 2). The prepared dentin specimens were randomly divided into six groups according to the solution used. The canal of each section was covered with an adhesive wax at the lower surface of the dentin specimen. Dentin specimens were then irrigated with one of five intervening solutions (AA2P salts of Mg (0.18 mM), Zn (5.3 μM), Mn (2.2×10^-8 M), Sr (1.8 μM), and Ba (1.9 μM)) for five minutes, with the saline solution used as the control group. The root canals were then flushed with 10 mL of distilled water immediately after each treatment to remove excess solution. […]
Fortified dentin specimens were completely immersed in 30 ml of 0.1 M butyric acid buffered with synthetic tissue fluid (pH 4.4) for 24 hours at 37 degrees C. and 100% relative humidity. After incubation, the specimens were removed from the acidic solutions, rinsed with distilled water to remove any residual acid, and dried. The weight of the dentin slices was measured by a digital microbalance before and after immersion into butyric acid, and the difference in weight provided information on dentin solubility.

Row | Structure (SMILES) | resistance to dentin solubility than the saline solution
1 | O=C1O[C@H]([C@@H](O)CO)C([O-])=C1OP(=O)([O-])[O-].O=C1O[C@H]([C@@H](O)CO)C([O-])=C1OP(=O)([O-])[O-].[Sr+2].[Sr+2].[Sr+2] [Sr] | 2-2.5 times
2 | O=C1O[C@H]([C@@H](O)CO)C([O-])=C1OP(=O)([O-])[O-].O=C1O[C@H]([C@@H](O)CO)C([O-])=C1OP(=O)([O-])[O-].[Mg+2].[Mg+2].[Mg+2] [Mg] | 2-2.5 times
3 | O=C1O[C@H]([C@@H](O)CO)C([O-])=C1OP(=O)([O-])[O-].O=C1O[C@H]([C@@H](O)CO)C([O-])=C1OP(=O)([O-])[O-].[Zn+2].[Zn+2].[Zn+2] [Zn] | 2-2.5 times
